{"source": "PubChem BioAssay AID1159578 (Peter MacCallum Cancer Centre, 2015)", "test": "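siRNA pools altering how lymphatic endothelial cells close a scratch wound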 (primary screen)", "system": "human lymphatic endothelial cells", "reagent": "siRNA pool against human genes, 40 nM", "duration": "48 h after transfection", "detection": "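Cells stained with dye and imaged after a scratch; covered wound area and nuclei counted, duplicates averaged, migration set against mock wells and turned into a robust z-score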", "reading the numbers": "migration robust z-score: higher = faster migration into the scratch; nuclei per well: higher = more cells in the well", "rule for the call": "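Pools averaging fewer than 3300 nuclei are never called; remaining pools count as changed when migration robust z lies outside -2 to 2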", "calls": "active = migration changed; inactive = no migration change, or too few cells", "note": "This is one part, drawn at random, of about 18,000 reagents tested. Over the whole deposit, about 1,030 (5.7%) got an active call. 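Inactive calls also include pools with fewer than 3300 nuclei, whose migration was not assessed.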 Raw values are not corrected between plates. Further read-outs or replicates are left out here. Reagent sequences are not shown."}
{"gene knocked down": "ZDHHC15 (zDHHC palmitoyltransferase 15)", "migration robust z-score": -1.12, "migration class with cell-count check": "migration z between -2 and 2; enough cells", "nuclei per well, duplicate mean": 4958, "Outcome": "inactive"}
{"gene knocked down": "HSPB8 (heat shock protein family B (small) member 8)", "migration robust z-score": -3.81, "migration class with cell-count check": "under 3300 nuclei; migration not judged", "nuclei per well, duplicate mean": 3102, "Outcome": "inactive"}
{"gene knocked down": "ERCC8 (ERCC excision repair 8, CSA ubiquitin ligase complex subunit)", "migration robust z-score": 1.27, "migration class with cell-count check": "migration z between -2 and 2; enough cells", "nuclei per well, duplicate mean": 5418, "Outcome": "inactive"}
{"gene knocked down": "PTPA (protein phosphatase 2 phosphatase activator)", "migration robust z-score": 1.12, "migration class with cell-count check": "migration z between -2 and 2; enough cells", "nuclei per well, duplicate mean": 6077, "Outcome": "inactive"}
{"gene knocked down": "TNFRSF19 (TNF receptor superfamily member 19)", "migration robust z-score": 1.27, "migration class with cell-count check": "migration z between -2 and 2; enough cells", "nuclei per well, duplicate mean": 6033, "Outcome": "inactive"}
{"gene knocked down": "ZCCHC13 (zinc finger CCHC-type containing 13)", "migration robust z-score": -0.67, "migration class with cell-count check": "migration z between -2 and 2; enough cells", "nuclei per well, duplicate mean": 6278, "Outcome": "inactive"}
{"gene knocked down": "TMEM132A (transmembrane protein 132A)", "migration robust z-score": 0.68, "migration class with cell-count check": "migration z between -2 and 2; enough cells", "nuclei per well, duplicate mean": 4360, "Outcome": "inactive"}
{"gene knocked down": "MZT1 (mitotic spindle organizing protein 1)", "migration robust z-score": -0.1, "migration class with cell-count check": "migration z between -2 and 2; enough cells", "nuclei per well, duplicate mean": 6112, "Outcome": "inactive"}
{"gene knocked down": "MRTO4 (MRT4 homolog, ribosome maturation factor)", "migration robust z-score": 1.11, "migration class with cell-count check": "migration z between -2 and 2; enough cells", "nuclei per well, duplicate mean": 6555, "Outcome": "inactive"}
{"gene knocked down": "DUSP6 (dual specificity phosphatase 6)", "migration robust z-score": -0.05, "migration class with cell-count check": "migration z between -2 and 2; enough cells", "nuclei per well, duplicate mean": 5975, "Outcome": "inactive"}
{"gene knocked down": "PTGS2 (prostaglandin-endoperoxide synthase 2)", "migration robust z-score": -0.34, "migration class with cell-count check": "migration z between -2 and 2; enough cells", "nuclei per well, duplicate mean": 5276, "Outcome": "inactive"}
{"gene knocked down": "SEC61G (SEC61 translocon subunit gamma)", "migration robust z-score": -0.57, "migration class with cell-count check": "migration z between -2 and 2; enough cells", "nuclei per well, duplicate mean": 5516, "Outcome": "inactive"}
{"gene knocked down": "CNBP (CCHC-type zinc finger nucleic acid binding protein)", "migration robust z-score": -0.28, "migration class with cell-count check": "migration z between -2 and 2; enough cells", "nuclei per well, duplicate mean": 5190, "Outcome": "inactive"}
{"gene knocked down": "FYRD1 (FYRN and FYRC domains INO80 complex interactor 1)", "migration robust z-score": -0.4, "migration class with cell-count check": "migration z between -2 and 2; enough cells", "nuclei per well, duplicate mean": 6020, "Outcome": "inactive"}

Targets above whose target name begins with T or t:
{"gene knocked down": "TNFRSF19 (TNF receptor superfamily member 19)", "migration robust z-score": 1.27, "migration class with cell-count check": "migration z between -2 and 2; enough cells", "nuclei per well, duplicate mean": 6033, "Outcome": "inactive"}
{"gene knocked down": "TMEM132A (transmembrane protein 132A)", "migration robust z-score": 0.68, "migration class with cell-count check": "migration z between -2 and 2; enough cells", "nuclei per well, duplicate mean": 4360, "Outcome": "inactive"}

Continued:
{"gene knocked down": "SLC35B2", "migration robust z-score": -1.08, "migration class with cell-count check": "migration z between -2 and 2; enough cells", "nuclei per well, duplicate mean": 5496, "Outcome": "inactive"}
{"gene knocked down": "TBC1D8 (TBC1 domain family member 8)", "migration robust z-score": -0.3, "migration class with cell-count check": "migration z between -2 and 2; enough cells", "nuclei per well, duplicate mean": 4988, "Outcome": "inactive"}
{"gene knocked down": "SP4 (Sp4 transcription factor)", "migration robust z-score": 0.2, "migration class with cell-count check": "migration z between -2 and 2; enough cells", "nuclei per well, duplicate mean": 5764, "Outcome": "inactive"}
{"gene knocked down": "SUN1 (Sad1 and UNC84 domain containing 1)", "migration robust z-score": -0.35, "migration class with cell-count check": "migration z between -2 and 2; enough cells", "nuclei per well, duplicate mean": 5066, "Outcome": "inactive"}
{"gene knocked down": "APOD (apolipoprotein D)", "migration robust z-score": 0.42, "migration class with cell-count check": "migration z between -2 and 2; enough cells", "nuclei per well, duplicate mean": 6289, "Outcome": "inactive"}
{"gene knocked down": "NLRC5 (NLR family CARD domain containing 5)", "migration robust z-score": 0.42, "migration class with cell-count check": "migration z between -2 and 2; enough cells", "nuclei per well, duplicate mean": 5720, "Outcome": "inactive"}
{"gene knocked down": "WDR77 (WD repeat domain 77)", "migration robust z-score": -1.28, "migration class with cell-count check": "migration z between -2 and 2; enough cells", "nuclei per well, duplicate mean": 6842, "Outcome": "inactive"}
